Reference: publication PMC5363644
These are yes or no findings as the source states them, for the method shown. Binding seen in cells or lysates may run through a third protein. Some binding calls cover weakened binding; strength is not graded here.

Chains of the proteins cited; added tags and fusions are not shown.
UniProt Q00987: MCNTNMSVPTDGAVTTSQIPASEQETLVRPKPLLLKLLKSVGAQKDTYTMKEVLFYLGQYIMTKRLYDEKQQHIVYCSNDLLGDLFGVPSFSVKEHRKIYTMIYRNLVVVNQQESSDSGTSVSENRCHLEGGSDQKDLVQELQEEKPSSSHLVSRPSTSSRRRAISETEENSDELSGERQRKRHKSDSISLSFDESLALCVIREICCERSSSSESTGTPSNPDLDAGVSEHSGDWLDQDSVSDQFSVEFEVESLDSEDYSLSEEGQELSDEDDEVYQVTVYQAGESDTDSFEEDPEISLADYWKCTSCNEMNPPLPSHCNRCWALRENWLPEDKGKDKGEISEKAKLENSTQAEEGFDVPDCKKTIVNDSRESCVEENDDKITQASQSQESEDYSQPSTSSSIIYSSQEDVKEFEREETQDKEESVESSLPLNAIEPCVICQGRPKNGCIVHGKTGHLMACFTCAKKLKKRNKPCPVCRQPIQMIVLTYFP

What was measured:
[1] = target: M2-type pyruvate kinase (PKM2), endogenous (human (endogenous in HeLa and HCT-116)) (UniProt P14618); test: co-IP; endogenous proteins; HeLa or HCT-116 lysates in NP-40 lysis buffer (50 mM Tris-HCl pH 7.4, 0.5% NP-40, 150 mM NaCl); 2 ug antibody overnight at 4 C, protein A/G-agarose; immunoblotting
GST-PKM2 fusion protein = GST-PKM2 fusion protein (UniProt P14618); test: pull-down; purified GST-PKM2 coupled to GSH-Sepharose incubated with HeLa or HCT-116 cell lysates; three washes; retained proteins blotted; only the target purified
[2] = target: p53, endogenous (human (endogenous in HeLa and HCT-116)) (UniProt P04637); test: co-IP; endogenous proteins; HeLa or HCT-116 lysates in NP-40 lysis buffer (50 mM Tris-HCl pH 7.4, 0.5% NP-40, 150 mM NaCl); 2 ug antibody overnight at 4 C, protein A/G-agarose; immunoblotting

| Substance | binding [1] | binding (GST-PKM2 fusion protein) | binding [2] |
| --- | --- | --- | --- |
| MDM2 (mouse double minute-2), endogenous (from UniProt Q00987 1-491) (enzyme) | binds | binds |  |
| M2-type pyruvate kinase (PKM2), endogenous (from UniProt P14618 1-531) (enzyme) |  |  | binds |
| p53, endogenous (from UniProt P04637 1-393) | binds | binds |  |
